# Laboratory results taken from article doi:10.1101/695155.
# Sequences of proteins named here, by UniProt entry; tags and fusion partners are left off. A change or cut given only in a name is not applied to a line headed by its entry.
# UniProt O43602: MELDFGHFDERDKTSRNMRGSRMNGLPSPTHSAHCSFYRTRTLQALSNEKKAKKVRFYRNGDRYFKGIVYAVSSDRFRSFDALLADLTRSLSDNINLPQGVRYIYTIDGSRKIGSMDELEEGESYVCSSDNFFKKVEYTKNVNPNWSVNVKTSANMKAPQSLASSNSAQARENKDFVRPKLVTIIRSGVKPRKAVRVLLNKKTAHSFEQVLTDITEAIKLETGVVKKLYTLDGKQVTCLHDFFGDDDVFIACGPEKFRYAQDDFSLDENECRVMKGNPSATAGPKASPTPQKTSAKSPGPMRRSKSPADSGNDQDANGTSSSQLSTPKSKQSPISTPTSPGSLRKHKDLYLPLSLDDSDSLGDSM
# UniProt Q6P5H2: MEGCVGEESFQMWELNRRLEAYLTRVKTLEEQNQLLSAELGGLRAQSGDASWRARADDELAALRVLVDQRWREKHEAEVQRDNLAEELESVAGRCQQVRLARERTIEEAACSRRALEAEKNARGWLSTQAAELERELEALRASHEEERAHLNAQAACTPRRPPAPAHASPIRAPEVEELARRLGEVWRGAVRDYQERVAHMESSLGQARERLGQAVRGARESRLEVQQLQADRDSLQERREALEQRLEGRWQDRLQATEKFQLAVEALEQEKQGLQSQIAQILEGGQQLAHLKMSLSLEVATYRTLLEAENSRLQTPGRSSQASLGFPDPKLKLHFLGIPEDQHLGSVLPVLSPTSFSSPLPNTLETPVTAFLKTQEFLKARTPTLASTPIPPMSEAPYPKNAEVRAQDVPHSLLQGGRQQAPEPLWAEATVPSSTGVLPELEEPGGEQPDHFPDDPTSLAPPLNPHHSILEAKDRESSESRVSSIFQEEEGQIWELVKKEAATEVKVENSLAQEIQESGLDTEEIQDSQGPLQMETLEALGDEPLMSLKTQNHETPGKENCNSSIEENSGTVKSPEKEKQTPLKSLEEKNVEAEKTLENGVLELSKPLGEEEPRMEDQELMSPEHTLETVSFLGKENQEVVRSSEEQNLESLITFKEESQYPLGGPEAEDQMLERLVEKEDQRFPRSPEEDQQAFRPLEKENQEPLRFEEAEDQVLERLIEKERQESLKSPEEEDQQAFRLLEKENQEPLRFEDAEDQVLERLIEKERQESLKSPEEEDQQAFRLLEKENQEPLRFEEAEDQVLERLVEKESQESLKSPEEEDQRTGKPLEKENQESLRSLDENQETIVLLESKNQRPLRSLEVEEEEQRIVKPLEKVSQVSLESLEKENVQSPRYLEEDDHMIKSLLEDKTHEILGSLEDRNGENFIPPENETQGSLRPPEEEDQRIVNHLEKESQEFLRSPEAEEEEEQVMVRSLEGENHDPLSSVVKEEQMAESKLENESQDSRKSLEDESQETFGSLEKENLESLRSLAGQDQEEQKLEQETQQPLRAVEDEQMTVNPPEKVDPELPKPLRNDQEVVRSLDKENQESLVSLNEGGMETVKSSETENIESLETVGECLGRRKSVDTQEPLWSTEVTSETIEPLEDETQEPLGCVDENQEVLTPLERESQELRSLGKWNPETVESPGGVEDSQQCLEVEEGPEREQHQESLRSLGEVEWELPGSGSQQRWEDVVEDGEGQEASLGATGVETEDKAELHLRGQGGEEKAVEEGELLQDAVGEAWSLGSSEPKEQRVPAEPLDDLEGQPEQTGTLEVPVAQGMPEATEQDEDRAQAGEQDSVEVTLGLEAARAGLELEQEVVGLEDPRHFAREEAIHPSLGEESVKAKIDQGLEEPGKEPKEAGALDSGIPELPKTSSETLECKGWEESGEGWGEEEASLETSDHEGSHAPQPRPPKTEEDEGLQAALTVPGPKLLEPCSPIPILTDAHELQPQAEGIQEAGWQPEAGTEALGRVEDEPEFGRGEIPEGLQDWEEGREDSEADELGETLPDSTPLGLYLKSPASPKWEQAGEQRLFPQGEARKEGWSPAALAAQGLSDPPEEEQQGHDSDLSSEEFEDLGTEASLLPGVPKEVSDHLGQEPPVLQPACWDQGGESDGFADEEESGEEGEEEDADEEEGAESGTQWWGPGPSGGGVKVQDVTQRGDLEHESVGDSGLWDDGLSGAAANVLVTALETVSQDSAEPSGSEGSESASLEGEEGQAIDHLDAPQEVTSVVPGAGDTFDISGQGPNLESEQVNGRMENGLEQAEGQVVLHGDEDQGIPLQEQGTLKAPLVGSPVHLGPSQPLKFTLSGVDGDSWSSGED
# UniProt Q05397: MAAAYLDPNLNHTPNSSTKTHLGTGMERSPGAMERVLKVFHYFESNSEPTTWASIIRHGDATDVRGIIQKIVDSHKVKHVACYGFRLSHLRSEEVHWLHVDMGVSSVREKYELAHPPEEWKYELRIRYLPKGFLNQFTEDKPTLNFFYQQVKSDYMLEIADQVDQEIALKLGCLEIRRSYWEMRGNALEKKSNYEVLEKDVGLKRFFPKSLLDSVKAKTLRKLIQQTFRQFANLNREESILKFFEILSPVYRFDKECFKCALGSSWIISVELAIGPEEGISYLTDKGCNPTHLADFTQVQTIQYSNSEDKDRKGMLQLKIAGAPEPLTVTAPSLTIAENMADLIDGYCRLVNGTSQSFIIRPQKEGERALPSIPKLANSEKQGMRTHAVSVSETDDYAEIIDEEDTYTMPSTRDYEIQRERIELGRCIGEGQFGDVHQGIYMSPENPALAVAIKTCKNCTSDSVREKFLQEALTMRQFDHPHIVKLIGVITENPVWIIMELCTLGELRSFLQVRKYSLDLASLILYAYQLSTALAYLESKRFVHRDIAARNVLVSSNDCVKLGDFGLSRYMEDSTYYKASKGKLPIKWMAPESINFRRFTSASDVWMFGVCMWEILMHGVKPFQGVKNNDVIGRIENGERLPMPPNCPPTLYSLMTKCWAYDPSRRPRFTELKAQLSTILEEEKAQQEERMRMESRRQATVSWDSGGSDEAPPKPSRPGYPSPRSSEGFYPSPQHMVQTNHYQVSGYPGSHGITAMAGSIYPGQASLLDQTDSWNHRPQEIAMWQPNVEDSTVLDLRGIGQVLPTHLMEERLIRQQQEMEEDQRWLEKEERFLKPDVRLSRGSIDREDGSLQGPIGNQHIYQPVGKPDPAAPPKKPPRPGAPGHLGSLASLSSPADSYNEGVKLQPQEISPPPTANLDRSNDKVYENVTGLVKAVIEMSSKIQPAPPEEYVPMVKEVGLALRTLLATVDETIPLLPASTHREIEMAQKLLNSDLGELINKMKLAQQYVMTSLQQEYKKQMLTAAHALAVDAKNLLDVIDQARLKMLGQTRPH
# UniProt P08670: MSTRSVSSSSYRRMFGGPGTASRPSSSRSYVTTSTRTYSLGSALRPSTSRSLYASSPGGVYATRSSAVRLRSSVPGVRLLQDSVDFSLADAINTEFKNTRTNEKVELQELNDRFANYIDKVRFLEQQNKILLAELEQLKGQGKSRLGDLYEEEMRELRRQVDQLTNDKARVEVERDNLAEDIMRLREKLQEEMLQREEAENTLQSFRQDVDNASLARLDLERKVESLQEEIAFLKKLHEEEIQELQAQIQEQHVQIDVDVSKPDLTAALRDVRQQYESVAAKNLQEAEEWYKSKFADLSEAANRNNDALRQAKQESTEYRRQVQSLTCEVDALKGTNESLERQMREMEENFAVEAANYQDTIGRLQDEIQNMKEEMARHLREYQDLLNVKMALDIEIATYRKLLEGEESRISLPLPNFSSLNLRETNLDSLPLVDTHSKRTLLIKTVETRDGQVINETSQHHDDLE
# UniProt O35274: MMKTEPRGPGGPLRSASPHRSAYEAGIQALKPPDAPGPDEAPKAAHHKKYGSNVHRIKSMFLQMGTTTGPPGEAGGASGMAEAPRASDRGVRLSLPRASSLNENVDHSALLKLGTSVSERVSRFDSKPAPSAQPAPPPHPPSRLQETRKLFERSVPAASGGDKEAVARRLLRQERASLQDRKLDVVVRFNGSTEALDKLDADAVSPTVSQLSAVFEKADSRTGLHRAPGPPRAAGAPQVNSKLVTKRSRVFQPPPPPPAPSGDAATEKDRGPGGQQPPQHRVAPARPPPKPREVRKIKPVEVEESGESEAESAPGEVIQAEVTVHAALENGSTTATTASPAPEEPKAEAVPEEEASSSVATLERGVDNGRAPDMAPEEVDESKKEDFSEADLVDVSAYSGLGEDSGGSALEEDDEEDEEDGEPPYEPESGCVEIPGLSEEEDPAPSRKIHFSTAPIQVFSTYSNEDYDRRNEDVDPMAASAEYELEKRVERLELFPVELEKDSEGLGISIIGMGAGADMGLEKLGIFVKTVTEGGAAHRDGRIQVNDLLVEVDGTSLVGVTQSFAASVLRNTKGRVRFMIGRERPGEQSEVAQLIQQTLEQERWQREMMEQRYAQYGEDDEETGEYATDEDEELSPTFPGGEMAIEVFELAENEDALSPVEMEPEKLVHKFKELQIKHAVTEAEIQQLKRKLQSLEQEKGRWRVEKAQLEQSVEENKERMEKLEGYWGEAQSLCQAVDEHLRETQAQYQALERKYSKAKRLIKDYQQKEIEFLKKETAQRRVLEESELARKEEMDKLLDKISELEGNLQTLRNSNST
# UniProt Q15078: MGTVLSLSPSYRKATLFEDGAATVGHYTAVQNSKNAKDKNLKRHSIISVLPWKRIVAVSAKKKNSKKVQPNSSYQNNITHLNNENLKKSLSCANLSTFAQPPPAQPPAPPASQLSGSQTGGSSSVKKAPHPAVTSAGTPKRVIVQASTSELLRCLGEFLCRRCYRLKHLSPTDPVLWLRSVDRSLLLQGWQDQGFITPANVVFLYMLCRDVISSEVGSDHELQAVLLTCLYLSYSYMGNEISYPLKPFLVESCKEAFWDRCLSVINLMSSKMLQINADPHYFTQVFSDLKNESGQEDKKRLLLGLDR
# Residue numbers refer to the chain shown, from its start. Where two headings read alike, the source gives them in different places. No constants are given. Whether binding was seen depends on the method and setting. In cells and extracts the contact can be indirect. Some results given as binding are weak or reduced against the parent protein; the word gives no strength. For some assays here: Where a sequence is shown, tags or fusion partners need not be part of it.
# T1: DCX (endogenous, E17 rat brain) (rat (endogenous in E17 rat brain)) (UniProt Q9ESI7)
# T1 sequence: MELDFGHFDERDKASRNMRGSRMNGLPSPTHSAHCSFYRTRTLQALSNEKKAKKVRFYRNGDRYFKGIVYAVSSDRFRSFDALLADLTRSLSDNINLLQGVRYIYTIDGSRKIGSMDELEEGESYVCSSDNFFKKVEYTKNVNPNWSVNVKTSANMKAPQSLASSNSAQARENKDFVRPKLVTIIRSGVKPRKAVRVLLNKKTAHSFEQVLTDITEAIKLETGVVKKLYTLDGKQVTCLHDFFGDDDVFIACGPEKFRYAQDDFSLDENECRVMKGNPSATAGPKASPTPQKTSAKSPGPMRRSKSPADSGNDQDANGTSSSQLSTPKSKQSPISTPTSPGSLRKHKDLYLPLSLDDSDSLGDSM
# T2: DCX (endogenous, E16 mouse cortical neurons, 1 DIV) (mouse (endogenous in E16 cortical neurons)) (UniProt O88809)
# T2 sequence: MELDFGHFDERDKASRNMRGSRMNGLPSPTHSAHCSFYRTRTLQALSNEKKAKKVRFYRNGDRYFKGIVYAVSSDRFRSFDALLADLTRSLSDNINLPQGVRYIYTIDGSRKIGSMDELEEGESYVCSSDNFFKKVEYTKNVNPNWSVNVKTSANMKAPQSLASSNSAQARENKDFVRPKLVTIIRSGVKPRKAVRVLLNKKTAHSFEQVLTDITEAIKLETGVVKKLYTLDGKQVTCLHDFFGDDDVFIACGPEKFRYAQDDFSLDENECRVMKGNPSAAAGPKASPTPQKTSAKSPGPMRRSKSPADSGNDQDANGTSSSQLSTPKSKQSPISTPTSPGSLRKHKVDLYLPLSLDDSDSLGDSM
# B1: GFP-DCX dephosphorylated with lambda phosphatase (protein, UniProt O43602 1-365)
# chain: T1 sequence with A14T, L98P
# modifications: dephosphorylated with lambda phosphatase (reduced pS297 levels)
# B2: DCX (endogenous, E17 rat brain) (protein, UniProt Q9ESI7 1-365)
# chain: T1 sequence
# B3: GFP-DCLK1 (protein, UniProt O15075 1-740)
# chain: MSFGRDMELEHFDERDKAQRYSRGSRVNGLPSPTHSAHCSFYRTRTLQTLSSEKKAKKVRFYRNGDRYFKGIVYAISPDRFRSFEALLADLTRTLSDNVNLPQGVRTIYTIDGLKKISSLDQLVEGESYVCGSIEPFKKLEYTKNVNPNWSVNVKTTSASRAVSSLATAKGSPSEVRENKDFIRPKLVTIIRSGVKPRKAVRILLNKKTAHSFEQVLTDITDAIKLDSGVVKRLYTLDGKQVMCLQDFFGDDDIFIACGPEKFRYQDDFLLDESECRVVKSTSYTKIASSSRRSTTKSPGPSRRSKSPASTSSVNGTPGSQLSTPRSGKSPSPSPTSPGSLRKQRSSQHGGSSTSLASTKVCSSMDENDGPGEEVSEEGFQIPATITERYKVGRTIGDGNFAVVKECVERSTAREYALKIIKKSKCRGKEHMIQNEVSILRRVKHPNIVLLIEEMDVPTELYLVMELVKGGDLFDAITSTNKYTERDASGMLYNLASAIKYLHSLNIVHRDIKPENLLVYEHQDGSKSLKLGDFGLATIVDGPLYTVCGTPTYVAPEIIAETGYGLKVDIWAAGVITYILLCGFPPFRGSGDDQEVLFDQILMGQVDFPSPYWDNVSDSAKELITMMLLVDVDQRFSAVQVLEHPWVNDDGLPENEHQLSVAGKIKKHFNTGPKPNSTAAGVSVIATTALDKERQVFRRRRNQDVRSRYKAQPAPPELNSESEDYSPSSSETVRSPNSPF
# B4: Drebrin-YFP (protein, UniProt Q16643 1-649)
# chain: MAGVSFSGHRLELLAAYEEVIREESAADWALYTYEDGSDDLKLAASGEGGLQELSGHFENQKVMYGFCSVKDSQAALPKYVLINWVGEDVPDARKCACASHVAKVAEFFQGVDVIVNASSVEDIDAGAIGQRLSNGLARLSSPVLHRLRLREDENAEPVGTTYQKTDAAVEMKRINREQFWEQAKKEEELRKEEERKKALDERLRFEQERMEQERQEQEERERRYREREQQIEEHRRKQQTLEAEEAKRRLKEQSIFGDHRDEEEETHMKKSESEVEEAAAIIAQRPDNPREFFKQQERVASASAGSCDVPSPFNHRPGSHLDSHRRMAPTPIPTRSPSDSSTASTPVAEQIERALDEVTSSQPPPLPPPPPPAQETQEPSPILDSEETRAAAPQAWAGPMEEPPQAQAPPRGPGSPAEDLMFMESAEQAVLAAPVEPATADATEIHDAADTIETDTATADTTVANNVPPAATSLIDLWPGNGEGASTLQGEPRAPTPPSGTEVTLAEVPLLDEVAPEPLLPAGEGCATLLNFDELPEPPATFCDPEEVEGESLAAPQTPTLPSALEELEQEQEPEPHLLTNGETTQKEGTQASEGYFSQSQEEEFAQSEELCAKAPPPVFYNKPPEIDITCWDADPVPEEEEGFEGGD
# B5: drebrin (endogenous, E17 rat brain) (protein, UniProt Q07266 1-707)
# chain: MAGVSFSGHRLELLAAYEEVIREESAADWALYTYEDGSDDLKLAASGEGGLQELSGHFENQKVMYGFCSVKDSQAALPKYVLINWVGEDVPDARKCACASHVAKVAEFFQGVDVIVNASSVEDIDAGAIGQRLSNGLARLSSPVLHRLRLREDENAEPVGTTYQKTDAAVEMKRINREQFWEQAKKEEELRKEEERKKALDARLRFEQERMEQERQEQEERERRYREREQQIEEHRRKQQSLEAEEAKRRLKDQSIFGDQRDEEEESQMKKSESEVEEAAAIIAQRPDNPREFFRQQERVASASGGSCDAPSPFNHRPGRPYCPFIKASDSGPSSSSSSSSSPPRTPFPYITCHRTPNLSSSLPCSHLDSHRRMAPTPIPTRSPSDSSTASTPITEQIERALDEVTSSQPPPPPPPPPPAQEAQESAPRLDGEEVCKEAKVAAAPQVWAGCAEEPPRAQEPPLLQSSPTEDLMCTESPEQAVLAASPEPDASVTSVADAHAADTIETTTATTATTIADNVTPAAASLIDLWPGNGEEASTPQAEPRVPTPPSGAEASLAEVPLLNEAAQEPLPPVGEGCANLLNFDELPEPPATFCDPEEEAEGEPLAASQVLTMPSALEEVDQVLEQELEPEPHLLTNGETTQKEGTQQASEGYFSQSQEEEFAQSEEPCAKAPPPVFYNKPPEIDITCWDADPVPEEEEGFEGGD
# Assays:
# Assay in all cases: co-IP
# [1] = target: T1, DCX (endogenous, E17 rat brain) (rat (endogenous in E17 rat brain))
# Nestin-myc (mouse) [2] = target: Nestin-myc (mouse) (UniProt Q6P5H2)
# Nestin-myc T316D (mouse) = Nestin-myc T316D (mouse) (UniProt Q6P5H2)
# Nestin-myc T316A (mouse) = Nestin-myc T316A (mouse) (UniProt Q6P5H2)
# [3] = target: T2, DCX (endogenous, E16 mouse cortical neurons, 1 DIV) (mouse (endogenous in E16 cortical neurons))
# Nestin-myc (mouse) [4] = target: Nestin-myc (mouse) (UniProt Q6P5H2); remark: listed apart in the source
# [5] = target: nestin (endogenous, E17 rat brain) (rat (endogenous in E17 rat brain)) (UniProt P21263)
# [6] = target: T1, DCX (endogenous, E17 rat brain) (rat (endogenous in E17 rat brain)); remark: listed apart in the source
molecule,measurement,setting,value
"nestin (endogenous, E17 rat brain) (from UniProt P21263 1-1893)",binding,[1],binds
GFP-FAK (from UniProt Q05397 1-1052),binding,Nestin-myc (mouse) [2],no binding
"vimentin (endogenous, HEK293) (from UniProt P08670 1-466)",binding,Nestin-myc (mouse) [2],binds
same,binding,Nestin-myc T316D (mouse),binds
same,binding,Nestin-myc T316A (mouse),binds
"nestin (endogenous, E16 mouse cortical neurons, 1 DIV) (from UniProt Q6P5H2 1-1864)",binding,[3],binds
"spinophilin (SPN) (endogenous, E17 rat brain) (from UniProt O35274 1-817)",binding,[1],binds
p35 (from UniProt Q15078 1-307),binding,Nestin-myc (mouse) [2],binds
same,binding,Nestin-myc T316A (mouse),binds
B1,binding,Nestin-myc (mouse) [4],binds
B2,binding,[5],binds
B3,binding,Nestin-myc (mouse) [4],no binding
B4,binding,Nestin-myc (mouse) [4],no binding
B5,binding,[6],no binding
